Laboratory results taken from article PMC6916386.
These are yes or no findings as the source states them, for the method shown. For some assays here: In cells and extracts the contact can be indirect. Some entries that bind do so weakly or less than the wild type. Tags and fused reporters may be left off the sequences shown.

T1: eukaryotic translation initiation factor 4G1 fused to GST (eIF4G1-GST) (yeast), P39935
T1 chain: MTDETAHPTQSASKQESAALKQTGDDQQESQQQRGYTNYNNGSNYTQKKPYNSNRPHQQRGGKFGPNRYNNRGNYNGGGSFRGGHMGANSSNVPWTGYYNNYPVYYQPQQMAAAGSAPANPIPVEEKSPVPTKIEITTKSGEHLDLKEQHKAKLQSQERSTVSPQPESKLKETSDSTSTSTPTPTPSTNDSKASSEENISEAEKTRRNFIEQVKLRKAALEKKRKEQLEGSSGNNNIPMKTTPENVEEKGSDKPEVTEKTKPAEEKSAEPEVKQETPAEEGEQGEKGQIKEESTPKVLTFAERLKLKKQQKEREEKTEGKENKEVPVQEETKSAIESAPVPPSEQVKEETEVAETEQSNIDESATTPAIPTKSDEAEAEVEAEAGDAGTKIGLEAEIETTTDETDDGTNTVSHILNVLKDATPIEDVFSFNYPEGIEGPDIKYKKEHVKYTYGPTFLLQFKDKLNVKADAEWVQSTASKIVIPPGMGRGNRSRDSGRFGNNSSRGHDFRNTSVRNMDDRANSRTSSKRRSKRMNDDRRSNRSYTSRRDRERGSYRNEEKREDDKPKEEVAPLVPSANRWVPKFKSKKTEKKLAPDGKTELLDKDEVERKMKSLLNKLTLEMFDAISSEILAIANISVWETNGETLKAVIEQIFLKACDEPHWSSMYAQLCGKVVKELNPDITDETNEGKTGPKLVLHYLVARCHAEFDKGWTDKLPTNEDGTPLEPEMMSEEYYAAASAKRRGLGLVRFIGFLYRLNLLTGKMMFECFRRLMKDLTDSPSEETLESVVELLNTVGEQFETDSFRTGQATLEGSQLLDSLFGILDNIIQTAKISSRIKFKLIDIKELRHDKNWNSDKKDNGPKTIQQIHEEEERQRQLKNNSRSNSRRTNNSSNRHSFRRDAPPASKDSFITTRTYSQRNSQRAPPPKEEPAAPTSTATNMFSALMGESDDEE

B1: Sbp1, wild-type sequence, galactose-inducible with ZZ (protein A) tag, overexpressed in the Δhmt1 strain, P10080 1-294 (protein)
chain: MSAEIEEATNAVNNLSINDSEQQPRAPTHKTVIDPEDTIFIGNVAHECTEDDLKQLFVEEFGDEVSVEIPIKEHTDGHIPASKHALVKFPTKIDFDNIKENYDTKVVKDREIHIKRARTPGQMQRGGFRGRGGFRGRGGFRGGFRGGYRGGFRGRGNFRGRGGARGGFNGQKREKIPLDQMERSKDTLYINNVPFKATKEEVAEFFGTDADSISLPMRKMRDQHTGRIFTSDSANRGMAFVTFSGENVDIEAKAEEFKGKVFGDRELTVDVAVIRPENDEEEIEQETGSEEKQE
B2: His-Sbp1-FLAG, recombinant, unmethylated, P10080 1-294 (protein)
chain: B1 chain

How the values were obtained:
[1] = target: T1, eukaryotic translation initiation …; test: pull-down; 100 picomoles of purified GST or eIF4G1-GST added to lysate of yeast overexpressing Sbp1 or mutants (galactose induction 6 h in wild type, 5 h for Δhmt1); glutathione beads; 50 mM HEPES pH 7.5, 100 mM NaCl, 1% Triton X, 2 mM MgCl2, 2 mM MnCl2, RNase A 1 mg/mL, 1 mM DTT, BSA 10 mg/mL; 4 °C, 30 min; Sbp1 detected with PAP reagent; only the target purified; conditions: remark: other sources report otherwise
[2] = target: T1, eukaryotic translation initiation …; test: pull-down; 100 pm of eIF4G1-GST and GST, 20 pm of purified Sbp1 (methylated or unmethylated); glutathione beads; same binding and wash buffer as the lysate assay; binding for 2 h; both purified; conditions: remark: other sources report otherwise

Binder	binding [1]	binding [2]
B1	binds	–
B2	–	binds
